Reference: doi:10.1101/2023.03.15.532818
These are yes or no findings as the source states them, for the method shown. Binding seen in cells or lysates may run through a third protein. Some results given as binding are weak or reduced against the parent protein; the word gives no strength. For part of these data: Sequences can lack the tags named with a protein.

The chains behind the UniProt entries cited, without tags or fusion partners. Where a name states a change or a piece, a line headed by the entry shows the natural chain unless it says otherwise.
UniProt Q8IUF8, whole entry: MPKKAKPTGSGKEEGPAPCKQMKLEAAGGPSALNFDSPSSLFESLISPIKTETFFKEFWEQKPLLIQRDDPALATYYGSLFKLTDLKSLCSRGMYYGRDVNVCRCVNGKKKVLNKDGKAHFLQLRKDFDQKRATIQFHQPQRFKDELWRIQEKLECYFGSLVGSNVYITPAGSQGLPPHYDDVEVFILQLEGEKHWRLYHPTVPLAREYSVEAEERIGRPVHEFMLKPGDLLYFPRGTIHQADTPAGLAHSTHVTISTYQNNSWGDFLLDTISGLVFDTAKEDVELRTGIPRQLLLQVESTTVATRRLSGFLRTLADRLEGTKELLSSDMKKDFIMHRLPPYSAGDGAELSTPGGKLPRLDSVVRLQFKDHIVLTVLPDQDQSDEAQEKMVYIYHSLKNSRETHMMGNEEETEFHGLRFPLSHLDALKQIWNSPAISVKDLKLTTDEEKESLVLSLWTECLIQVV
UniProt P06748, whole entry: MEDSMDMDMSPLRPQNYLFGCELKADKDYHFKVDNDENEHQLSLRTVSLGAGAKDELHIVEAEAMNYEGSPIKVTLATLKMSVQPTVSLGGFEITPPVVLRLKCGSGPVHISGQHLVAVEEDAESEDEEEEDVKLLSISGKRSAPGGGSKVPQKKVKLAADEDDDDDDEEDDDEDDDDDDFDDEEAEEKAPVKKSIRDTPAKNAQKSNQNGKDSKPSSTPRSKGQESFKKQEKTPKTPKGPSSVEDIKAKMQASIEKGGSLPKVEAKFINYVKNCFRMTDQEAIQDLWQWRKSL

Assays:
Assay in all cases: co-IP
[1] = biological target: HA-MINA R125G/K126G (NoLS mutant) (UniProt Q8IUF8)
MPP6-HA (human) = biological target: T1, MPP6-HA (human) (UniProt Q9NZW5)
T1 sequence: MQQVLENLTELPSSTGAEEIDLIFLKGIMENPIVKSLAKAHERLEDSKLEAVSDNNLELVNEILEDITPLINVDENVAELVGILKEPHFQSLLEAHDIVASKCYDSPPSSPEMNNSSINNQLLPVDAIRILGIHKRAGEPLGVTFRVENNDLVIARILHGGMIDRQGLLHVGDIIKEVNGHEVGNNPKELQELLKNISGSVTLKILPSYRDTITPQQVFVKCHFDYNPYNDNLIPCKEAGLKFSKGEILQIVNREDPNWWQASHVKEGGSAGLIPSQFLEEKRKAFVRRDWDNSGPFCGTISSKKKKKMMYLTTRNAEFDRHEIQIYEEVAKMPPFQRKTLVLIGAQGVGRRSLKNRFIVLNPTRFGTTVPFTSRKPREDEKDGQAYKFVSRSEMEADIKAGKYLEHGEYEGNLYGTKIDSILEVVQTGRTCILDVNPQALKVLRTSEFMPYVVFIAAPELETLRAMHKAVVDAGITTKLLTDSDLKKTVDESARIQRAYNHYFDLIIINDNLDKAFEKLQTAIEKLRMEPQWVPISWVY

[2] = biological target: T2, MPP2 with C-terminal HA tag (wildtype MPP2) (UniProt Q14168)
T2 sequence: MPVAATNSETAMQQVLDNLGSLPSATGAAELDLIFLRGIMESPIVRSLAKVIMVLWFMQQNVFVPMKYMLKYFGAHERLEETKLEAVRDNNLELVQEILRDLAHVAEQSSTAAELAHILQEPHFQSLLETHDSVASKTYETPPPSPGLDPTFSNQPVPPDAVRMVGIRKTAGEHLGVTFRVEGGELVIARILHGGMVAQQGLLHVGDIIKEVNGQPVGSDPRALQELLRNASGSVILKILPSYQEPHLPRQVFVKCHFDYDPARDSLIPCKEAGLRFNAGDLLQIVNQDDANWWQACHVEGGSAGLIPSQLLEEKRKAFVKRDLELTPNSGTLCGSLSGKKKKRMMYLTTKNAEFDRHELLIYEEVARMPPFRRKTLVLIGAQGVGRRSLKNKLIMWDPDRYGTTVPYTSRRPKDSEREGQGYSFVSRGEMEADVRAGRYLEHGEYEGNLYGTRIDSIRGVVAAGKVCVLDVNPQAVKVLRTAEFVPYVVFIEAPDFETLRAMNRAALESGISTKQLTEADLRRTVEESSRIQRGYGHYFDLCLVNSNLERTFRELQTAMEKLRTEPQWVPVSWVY

[3] = biological target: 3xFLAG-MINA H179A (inactivating Fe(II)-binding mutation) (UniProt Q8IUF8)
HA-MINA (wildtype) = HA-MINA (wildtype) (UniProt Q8IUF8)
[4] = biological target: 3xFLAG-MINA R125G/K126G (NoLS mutant) (UniProt Q8IUF8)

Q: Which binding [1] does the source give for “endogenous Nucleophosmin (NPM1) (from UniProt P06748 1-294)” here?
A: no binding

Q: With “FLAG-MINA (from UniProt Q8IUF8 1-465) (enzyme)” as the molecule, how does the binding (MPP6-HA (human)) read?
A: binds

Q: What about the binding [2] of the same molecule?
A: no binding

B1: endogenous MPP6 (membrane palmitoylated protein 6) (protein, UniProt Q9NZW5 1-540)
chain: MQQVLENLTELPSSTGAEEIDLIFLKGIMENPIVKSLAKAHERLEDSKLEAVSDNNLELVNEILEDITPLINVDENVAELVGILKEPHFQSLLEAHDIVASKCYDSPPSSPEMNNSSINNQLLPVDAIRILGIHKRAGEPLGVTFRVENNDLVIARILHGGMIDRQGLLHVGDIIKEVNGHEVGNNPKELQELLKNISGSVTLKILPSYRDTITPQQVFVKCHFDYNPYNDNLIPCKEAGLKFSKGEILQIVNREDPNWWQASHVKEGGSAGLIPSQFLEEKRKAFVRRDWDNSGPFCGTISSKKKKKMMYLTTRNAEFDRHEIQIYEEVAKMPPFQRKTLVLIGAQGVGRRSLKNRFIVLNPTRFGTTVPFTSRKPREDEKDGQAYKFVSRSEMEADIKAGKYLEHGEYEGNLYGTKIDSILEVVQTGRTCILDVNPQALKVLRTSEFMPYVVFIAAPELETLRAMHKAVVDAGITTKLLTDSDLKKTVDESARIQRAYNHYFDLIIINDNLDKAFEKLQTAIEKLRMEPQWVPISWVY
Q: Which results are given for B1?
A: binding [3]: no binding; binding (HA-MINA (wildtype)): binds; binding [4]: binds
